Literature values, collected in patent US20240009155A1, “USE OF SHORT CHAIN FATTY ACIDS IN CANCER PREVENTION” (priority 2020, published 2024).
At least one structure is not confirmed: it was looked up by name or label, or the drawing left a doubt.

Tested on: miR-106b
Settings: accompanied by decreased cell proliferation

Structure (SMILES): CCCC(=O)O [butyrate]
- expression of miR-106b: decreased
